Experimental data reported in PubChem BioAssay AID1487 (National Center for Advancing Translational Sciences (NCATS), 2009).
The other results are listed elsewhere or left out. Further columns of the screen follow, without active or inactive calls. The list favours compounds with an active or inconclusive main result. Potencies come from curve fits of mixed quality, noted in brackets.

Experiment: qHTS Assay for Modulators of Lamin A Splicing
Settings: HeLa LMNA splicing GFP/RFP minigene ratio, 48 h
From the text: NCGC Assay Overview: Hutchinson-Gilford Progeria Syndrome (HGPS) is a pediatric premature aging disease caused by a spontaneous mutation in the lamin A/C (LMNA) gene. The mutation activates a cryptic splice site in the LMNA pre-mRNA which results in production of a pre-lamin A protein that cannot be processed properly. The mutant protein accumulates in the nucleus and negatively affects numerous cellular functions. Correction of the splicing defect in HGPS patient cells using a targeted oligonucleotide (exo11) leads to reversal of the cellular disease phenotypes. To identify small molecule modulators of aberrant LMNA splicing, a homogenous assay was constructed in HeLa cells that used a GFP containing minigene to report on correction of aberrant splicing in lamin A and a RFP (DsRed2) to report on cell viability, uniformity and nonspecific effects on the assay signal. This assay was adapted to laser-scanning microplate cytometry (Acumen, TTP Labtech) where miniaturization of the assay to a 1,536-well plate format was possible. References: Bowen, W. P.; Wylie, P. G. Application of Laser-Scanning Fluorescence Microplate Cytometry in High Content Screening. Assay Drug Dev Technol 2006;4:209-221. Scaffidi P, Misteli T. Reversal of the cellular phenotype in the premature aging disease Hutchinson-Gilford progeria syndrome. Nat.
NCGC Assay Protocol Summary: Reagents/Controls: Stable clones expressing DsRed2 and lamin A-EGFP were generated by Cell and Molecular Technologies in S3 HeLa cells. HeLa cells were prepared for the assay when they were 70-90% confluent. The cells were counted and resuspended in Opti-MEM I (no phenol red; Gibco), 2% FBS, 1% penicillin/ streptomycin (Gibco) at concentration of 120 cells/uL concentration. The suspension was passed through a Falcon basket filter with pore size 40um (Beckton Dickson). Control titrations: column […] 1536-well plate contained a sixteen point titration (1:2 dilutions) in duplicate of ancitabine (Sigma: A8598) beginning at 40 uM final concentration. Column 2 contained a sixteen point titration (1:2 dilutions) of cycloheximide beginning at 1.4 mM final concentration. Column 3 contained ancitabine at 40 uM and column 4 contained was the vehicle control (0.5% DMSO final concentration). Assay Steps: 5 uL of HeLa cells were plated in Aurora LoBase black clear bottom (cyclic-olefin polymer) 1536-well plates at a final density of 600 cells/well. Controls and library compounds were added with a 1536-well pin array using the Kalypsys pin-tool. The plates were then incubated for 48 hrs in a cell-culture incubator (37 °C; 5% CO2, 98% humidity). Following incubation the plates were read on the Acumen Explorer using the 488 nm laser. Data was collected on objects between 10 and 100 um in size. Cell objects were defined by a 15 um width x 10 um depth filter. The ratio of the total object intensity in PMT1 (500-530 nm emission; GFP) over PMT3 (575-640 nm emission; RFP) was calculated for analysis. Keywords: NIH Roadmap, MLSCN, MLI, MLSMR, qHTS, NCGC, lamin A, Progeria, RNA splicing.

[1] = measured here: GFP splicing reporter channel
[2] = measured here: RFP viability control channel

With NC(=O)c1cc(NC(=O)c2cc(Br)c(Br)s2)cc(C(N)=O)c1 the AC50 [1] was 8.91 µM [falling, partial curve] and the AC50 [2] was 5.01 µM [falling, partial curve].

In the case of COc1ccc(CCNC(=O)Cn2nnc(-c3cccc(OC)c3OC)n2)cc1OC, the AC50 [2] was 25.1 µM [rising, single point].

In the case of COc1ccccc1C(CC(=O)Nc1ccc(C)c(C)c1)c1ccc(OC(C)C)cc1 (centres undefined), the AC50 [2] was 17.8 µM [rising, partial curve].

In the case of CC1CCN(S(=O)(=O)c2ccc(C(=O)Nc3nnc(-c4ccncc4)o3)cc2)CC1, the AC50 [1] was 6.31 µM [falling, partial curve, poor fit] and the AC50 [2] was 0.00316 µM [falling, full curve, poor fit].

In the case of CSCc1cc(N2CCOCC2)nc(SCc2ccc(Cl)c(Cl)c2)n1, the AC50 [1] was 12.6 µM [rising, single point].

With Cc1cnc(NC(=O)C2(c3ccccc3)CC2)s1 the AC50 [2] was 0.0282 µM [rising, full curve, poor fit].

For C=C(C)COc1ccc2c(C)c(C)c(=O)oc2c1OCC(=C)C, the AC50 [1] was 11.2 µM [rising, partial curve] and the AC50 [2] was 31.6 µM [rising, single point].

With COC(=O)C1=C(C)NC(C)=C(C(=O)OC)C1C1CC=CCC1 (centres undefined) the AC50 [2] was 35.5 µM [rising, single point].

For C#CCN(C)CC/C=C1\c2ccccc2CSc2ccccc21, the AC50 [1] was 35.5 µM [rising, single point].

For CCOc1ccc(/C=C/C(=O)Nc2cccc(C(C)=O)c2)cc1, the AC50 [2] was 28.2 µM [rising, single point].

With COc1ccccc1N1CCN(C(c2ccc(Cl)cc2)c2nnnn2C(C)(C)C)CC1 (centres undefined) the AC50 [1] was 12.6 µM [rising, partial curve] and the AC50 [2] was 20 µM [rising, single point].

With Cc1ccc2nc(NC(=O)c3cccc(-c4cc5ccccc5oc4=O)c3)sc2c1 the AC50 [1] was 35.5 µM [falling, single point] and the AC50 [2] was 12.6 µM [falling, partial curve].

In the case of Cc1ccc(-n2nnnc2SCn2nnc3ccccc3c2=O)cc1, the AC50 [2] was 12.6 µM [rising, single point].

In the case of COc1ccc(S(=O)(=O)N2CCCCCC2)cc1NC(=O)Cc1cc(OC)c(OC)c(OC)c1, the AC50 [2] was 35.5 µM [rising, single point].

For CC(C)CN(CC(C)C)S(=O)(=O)c1ccc(C(=O)Nc2sc3c(c2C(N)=O)CC(C)(C)NC3(C)C)cc1, the AC50 [2] was 0.158 µM [falling, full curve].

For CC(=O)c1ccc(N2CCN(C(=O)C3(S(=O)(=O)c4ccc(Cl)cc4)CC3)CC2)cc1, the AC50 [2] was 11.2 µM [rising, single point].

With CC1CN(S(=O)(=O)c2ccc(NC(=O)c3cc(-c4ccccc4O)n[nH]3)cc2)CC(C)O1 (centres undefined) the AC50 [1] was 8.91 µM [rising, partial curve, poor fit] and the AC50 [2] was 12.6 µM [rising, partial curve, poor fit].

With COc1ccc(/C=N/NC(=O)C2COc3ccccc3O2)cc1OC (centres undefined) the AC50 [1] was 0.0708 µM [falling, full curve, poor fit] and the AC50 [2] was 0.0282 µM [falling, full curve, poor fit].

With Clc1ccc(OCCn2cnc3ccccc32)cc1 the AC50 [2] was 35.5 µM [rising, single point].

For CCN1CCS/C1=C/C=C/C1=[N+](CC)CCS1, the AC50 [1] was 0.316 µM [rising, full curve] and the AC50 [2] was 2.24 µM [rising, full curve].

With COc1ccc(NC(=O)Cc2c(O)c3ccccc3[nH]c2=O)cc1 the AC50 [1] was 3.98 µM [falling, full curve] and the AC50 [2] was 7.08 µM [falling, full curve, poor fit].

With CCOC(=O)/C(C#N)=C/Nc1ccccc1NS(=O)(=O)c1ccc(C)c(C)c1 the AC50 [2] was 35.5 µM [falling, single point].

In the case of COC(=O)c1cc(S(=O)(=O)C(C)C)c(S(C)=O)s1 (centres undefined), the AC50 [1] was 3.98 µM [falling, partial curve] and the AC50 [2] was 12.6 µM [falling, single point].

In the case of CCOc1ccccc1NC(=O)c1c(NCc2cccs2)sc2c1CCC(C)C2 (centres undefined), the AC50 [1] was 2.82 µM [falling, single point].

For Cc1noc(C)c1-c1ccc2ncnc(N(C)Cc3ccco3)c2c1, the AC50 [1] was 3.55 µM [falling, single point].

With Cc1nnc(NC(=O)CSc2nccn2Cc2ccc(F)cc2)s1 the AC50 [1] was 0.355 µM [rising, full curve, poor fit].

For CCOC(=O)c1c(S(=O)(=O)N2CCCC(C(=O)Nc3ccccn3)C2)c(C)n(C)c1C (centres undefined), the AC50 [2] was 2.24 µM [falling, partial curve].

In the case of CCCCCCC(=O)c1c(C)[nH]c(C(=O)OCC)c1C, the AC50 [1] was 7.94 µM [rising, partial curve] and the AC50 [2] was 11.2 µM [rising, partial curve].

With COc1ccc(C)cc1NC(=O)C(Sc1nnc(-c2cccs2)o1)c1ccccc1 (centres undefined) the AC50 [1] was 17.8 µM [rising, single point] and the AC50 [2] was 14.1 µM [rising, single point].

For S=c1[nH]nc(-c2ccccn2)n1/N=C/c1ccc(-c2ccccc2Cl)o1, the AC50 [1] was 1.41 µM [falling, partial curve, poor fit] and the AC50 [2] was 31.6 µM [rising, single point].

For Cc1noc(C)c1-c1nccc(NCCN2CCOCC2)n1, the AC50 [1] was 12.6 µM [falling, partial curve, poor fit] and the AC50 [2] was 20 µM [falling, single point].

With O=C(Nc1ccc(C(=O)N2CCOCC2)cc1)Nc1cccc(Cl)c1 the AC50 [2] was 11.2 µM [rising, partial curve, poor fit].

In the case of CCOC(=O)C1CCN(C(=O)CN2c3ccc(CC)cc3-c3ccccc3S2(=O)=O)CC1, the AC50 [2] was 31.6 µM [falling, partial curve, poor fit].

With Cc1ccc(NC(=O)c2ccc(N3CCOCC3)c([N+](=O)[O-])c2)cc1S(=O)(=O)N1CCOCC1 the AC50 [1] was 17.8 µM [rising, single point] and the AC50 [2] was 35.5 µM [rising, single point].
